# The list shows a part of the results.
# Legend:
# Experiment in all cases: glycan array binding signal (z-score within array); higher = stronger binding
# Details in all cases: glycan notation: IUPAC condensed, linker removed
# [1] = molecular target: Neu5Ac(a2-6)Gal(b1-4)GlcNAc(b1-2)Man(a1-3)[GlcNAc(b1-4)][Neu5Ac(a2-6)Gal(b1-4)GlcNAc(b1-2)Man(a1-6)]Man(b1-4)GlcNAc(b1-4)GlcNAc
# In short: (§1)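 Columns mapping to the same glycan were averaged after glycan names were converted to IUPAC-condensed notation. The data come from 3228 arrays in the Consortium for Functional Glycomics database, limited to those with an available protein sequence. Binding is reported as a within-array Z-score averaged across arrays of one protein sequence and across linkers.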
# [2] = molecular target: Neu5Ac(a2-6)Gal(b1-4)GlcNAc(b1-2)Man(a1-3)[Man(a1-6)]Man(b1-4)GlcNAc(b1-4)GlcNAc
# In short: as §1
# [3] = molecular target: Neu5Ac(a2-6)Gal(b1-4)GlcNAc(b1-2)Man(a1-3)[Neu5Ac(a2-3)Gal(b1-4)GlcNAc(b1-2)Man(a1-6)]Man(b1-4)GlcNAc(b1-4)GlcNAc
# In short: as §1
# [4] = molecular target: Neu5Ac(a2-6)Gal(b1-4)GlcNAc(b1-2)Man(a1-3)[Neu5Ac(a2-6)Gal(b1-4)GlcNAc(b1-2)Man(a1-6)]Man(b1-4)GlcNAc(b1-4)GlcNAc
# In short: as §1
# [5] = molecular target: Neu5Ac(a2-6)Gal(b1-4)GlcNAc(b1-2)Man(a1-3)[Neu5Ac(a2-6)Gal(b1-4)GlcNAc(b1-2)Man(a1-6)]Man(b1-4)GlcNAc(b1-4)[Fuc(a1-6)]GlcNAc
# In short: as §1
# [6] = molecular target: Neu5Ac(a2-6)Gal(b1-4)GlcNAc(b1-2)Man(a1-6)Man(b1-4)GlcNAc(b1-4)GlcNAc
# In short: as §1
# [7] = molecular target: Neu5Ac(a2-6)Gal(b1-4)GlcNAc(b1-2)Man(a1-6)[Gal(b1-4)GlcNAc(b1-2)Man(a1-3)]Man(b1-4)GlcNAc(b1-4)GlcNAc
# In short: as §1
# [8] = molecular target: Neu5Ac(a2-6)Gal(b1-4)GlcNAc(b1-2)Man(a1-6)[GlcNAc(b1-2)Man(a1-3)]Man(b1-4)GlcNAc(b1-4)GlcNAc
# In short: as §1
# [9] = molecular target: Neu5Ac(a2-6)Gal(b1-4)GlcNAc(b1-2)Man(a1-6)[Man(a1-3)]Man(b1-4)GlcNAc(b1-4)GlcNAc
# In short: as §1
# [10] = molecular target: Neu5Ac(a2-6)Gal(b1-4)GlcNAc(b1-2)[Neu5Ac(a2-6)Gal(b1-4)GlcNAc(b1-4)]Man(a1-3)[GlcNAc(b1-4)][Neu5Ac(a2-6)Gal(b1-4)GlcNAc(b1-2)[Neu5Ac(a2-6)Gal(b1-4)GlcNAc(b1-6)]Man(a1-6)]Man(b1-4)GlcNAc(b1-4)GlcNAc
# In short: as §1
# [11] = molecular target: Neu5Ac(a2-6)Gal(b1-4)GlcNAc(b1-2)[Neu5Ac(a2-6)Gal(b1-4)GlcNAc(b1-4)]Man(a1-3)[GlcNAc(b1-4)][Neu5Ac(a2-6)Gal(b1-4)GlcNAc(b1-4)Man(a1-6)]Man(b1-4)GlcNAc(b1-4)GlcNAc
# In short: as §1
# [12] = molecular target: Neu5Ac(a2-6)Gal(b1-4)GlcNAc(b1-2)[Neu5Ac(a2-6)Gal(b1-4)GlcNAc(b1-6)]Man(a1-6)[Neu5Ac(a2-6)Gal(b1-4)GlcNAc(b1-2)Man(a1-3)][GlcNAc(b1-4)]Man(b1-4)GlcNAc(b1-4)GlcNAc
# In short: as §1
# [13] = molecular target: Neu5Ac(a2-6)Gal(b1-4)GlcNAc(b1-3)Gal(b1-3)GlcNAc
# In short: as §1
# [14] = molecular target: Neu5Ac(a2-6)Gal(b1-4)GlcNAc(b1-3)Gal(b1-4)GlcNAc
# In short: as §1
# [15] = molecular target: Neu5Ac(a2-6)Gal(b1-4)GlcNAc(b1-3)Gal(b1-4)GlcNAc(b1-2)Man(a1-3)[Neu5Ac(a2-6)Gal(b1-4)GlcNAc(b1-3)Gal(b1-4)GlcNAc(b1-2)Man(a1-6)]GalNAc
# In short: as §1
# [16] = molecular target: Neu5Ac(a2-6)Gal(b1-4)GlcNAc(b1-3)Gal(b1-4)GlcNAc(b1-3)Gal(b1-4)GlcNAc
# In short: as §1
# [17] = molecular target: Neu5Ac(a2-6)Gal(b1-4)GlcNAc(b1-3)Gal(b1-4)GlcNAc(b1-3)Gal(b1-4)GlcNAc(b1-2)Man(a1-3)[Neu5Ac(a2-6)Gal(b1-4)GlcNAc(b1-3)Gal(b1-4)GlcNAc(b1-3)Gal(b1-4)GlcNAc(b1-2)Man(a1-6)]GalNAc
# In short: as §1
# [18] = molecular target: Neu5Ac(a2-6)Gal(b1-4)GlcNAc(b1-3)Gal(b1-4)GlcNAc(b1-3)GalNAc
# In short: as §1
# [19] = molecular target: Neu5Ac(a2-6)Gal(b1-4)GlcNAc(b1-3)Gal(b1-4)GlcNAc(b1-3)[Neu5Ac(a2-6)Gal(b1-4)GlcNAc(b1-3)Gal(b1-4)GlcNAc(b1-6)]GalNAc
# In short: as §1
# [20] = molecular target: Neu5Ac(a2-6)Gal(b1-4)GlcNAc(b1-3)Gal(b1-4)GlcNAc(b1-6)[Gal(b1-3)]GalNAc
# In short: as §1
# [21] = molecular target: Neu5Ac(a2-6)Gal(b1-4)GlcNAc(b1-3)Gal(b1-4)[Fuc(a1-3)]GlcNAc(b1-3)Gal(b1-4)[Fuc(a1-3)]GlcNAc
# In short: as §1
# [22] = molecular target: Neu5Ac(a2-6)Gal(b1-4)GlcNAc(b1-3)GalNAc
# In short: as §1
# [23] = molecular target: Neu5Ac(a2-6)Gal(b1-4)GlcNAc(b1-3)[Neu5Ac(a2-6)Gal(b1-4)GlcNAc(b1-6)]GalNAc
# In short: as §1
# [24] = molecular target: Neu5Ac(a2-6)Gal(b1-4)GlcNAc(b1-6)GalNAc
# In short: as §1
# [25] = molecular target: Neu5Ac(a2-6)Gal(b1-4)GlcNAc(b1-6)[Gal(b1-3)GlcNAc(b1-3)]Gal(b1-4)Glc
# In short: as §1
# [26] = molecular target: Neu5Ac(a2-6)Gal(b1-4)GlcNAc(b1-6)[Gal(b1-3)]GalNAc
# In short: as §1
# [27] = molecular target: Neu5Ac(a2-6)Gal(b1-4)GlcNAc6S
# In short: as §1
# [28] = molecular target: Neu5Ac(a2-6)GalNAc
# In short: as §1
# [29] = molecular target: Neu5Ac(a2-6)GalNAc(b1-4)GlcNAc
# In short: as §1
# [30] = molecular target: Neu5Ac(a2-6)GalNAc(b1-4)GlcNAc6S
# In short: as §1
# [31] = molecular target: Neu5Ac(a2-6)GlcNAc(b1-4)GlcNAc
# In short: as §1
binder,measurement,setting,value
Epa20 (Candida glabrata) (protein) MGSSHHHHHHSSGLVPRGSHMASSNIPNNYPLGCSNKYSGHLPGLKMELYSYNYVNPRHPDPQNPGKLDQLYDPNLLGTYECFDSSYKDINYPRVGYKSKTLIGRSDGVSGILNFNFVPPWGCMPQKGQLPPAYNFKSNITLSNFTMILFGYFKPKISGNHIFSLHGDDLIYLNFGAGNAFDCCRQESSADNFGNYQAFSLWGINWEKKTLTVYLDMNTYYPIRIFYNNRDYQAIFNFSFKTEFDSSPVIDFQDYFFFLRDIDGGCPGEV,glycan array binding signal (z-score),[1],-0.397
same,glycan array binding signal (z-score),[2],0.402
same,glycan array binding signal (z-score),[3],-0.101
same,glycan array binding signal (z-score),[4],0.06
same,glycan array binding signal (z-score),[5],0.171
same,glycan array binding signal (z-score),[6],-0.108
same,glycan array binding signal (z-score),[7],-0.351
same,glycan array binding signal (z-score),[8],0.444
same,glycan array binding signal (z-score),[9],0.245
same,glycan array binding signal (z-score),[10],-0.267
same,glycan array binding signal (z-score),[11],-0.502
same,glycan array binding signal (z-score),[12],-0.412
same,glycan array binding signal (z-score),[13],0.113
same,glycan array binding signal (z-score),[14],-0.606
same,glycan array binding signal (z-score),[15],2.15
same,glycan array binding signal (z-score),[16],-0.948
same,glycan array binding signal (z-score),[17],3.97
same,glycan array binding signal (z-score),[18],0.784
same,glycan array binding signal (z-score),[19],1.17
same,glycan array binding signal (z-score),[20],0.103
same,glycan array binding signal (z-score),[21],-0.116
same,glycan array binding signal (z-score),[22],0.279
same,glycan array binding signal (z-score),[23],-0.014
same,glycan array binding signal (z-score),[24],0.553
same,glycan array binding signal (z-score),[25],-0.192
same,glycan array binding signal (z-score),[26],0.163
same,glycan array binding signal (z-score),[27],-0.384
same,glycan array binding signal (z-score),[28],-0.86
same,glycan array binding signal (z-score),[29],-0.36
same,glycan array binding signal (z-score),[30],0.195
same,glycan array binding signal (z-score),[31],-0.436

# Some of the entries above, set out differently.
binder | measurement | setting | value
Epa20 (Candida glabrata) (protein) MGSSHHHHHHSSGLVPRGSHMASSNIPNNYPLGCSNKYSGHLPGLKMELYSYNYVNPRHPDPQNPGKLDQLYDPNLLGTYECFDSSYKDINYPRVGYKSKTLIGRSDGVSGILNFNFVPPWGCMPQKGQLPPAYNFKSNITLSNFTMILFGYFKPKISGNHIFSLHGDDLIYLNFGAGNAFDCCRQESSADNFGNYQAFSLWGINWEKKTLTVYLDMNTYYPIRIFYNNRDYQAIFNFSFKTEFDSSPVIDFQDYFFFLRDIDGGCPGEV | glycan array binding signal (z-score) | [8] | 0.444
same | glycan array binding signal (z-score) | [13] | 0.113
